Results: publication PMC7774954, “Interactomic affinity profiling by holdup assay: Acetylation and distal residues impact the PDZome-binding specificity of PTEN phosphatase” (PLoS ONE, 2020)
Results are given in words; binding and its absence hold for the method and conditions named.

Chains of the proteins cited; added tags and fusions are not shown. Lines headed by an entry give the natural chain unless they say otherwise; changes in a name come on top. Residues count along the entry.
UniProt P60484: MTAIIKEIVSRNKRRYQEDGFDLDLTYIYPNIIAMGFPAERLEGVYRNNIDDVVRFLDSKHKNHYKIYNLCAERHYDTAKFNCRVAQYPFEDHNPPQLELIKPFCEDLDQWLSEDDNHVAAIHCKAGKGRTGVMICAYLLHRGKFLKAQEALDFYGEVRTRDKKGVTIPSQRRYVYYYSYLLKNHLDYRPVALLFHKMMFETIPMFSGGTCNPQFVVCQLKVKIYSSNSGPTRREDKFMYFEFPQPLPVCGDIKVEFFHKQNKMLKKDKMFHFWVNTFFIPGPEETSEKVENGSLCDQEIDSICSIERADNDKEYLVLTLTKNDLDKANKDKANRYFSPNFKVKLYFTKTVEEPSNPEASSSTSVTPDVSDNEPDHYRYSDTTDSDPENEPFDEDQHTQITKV
GRIP2-1 (Q9C0E4, residues 48-131): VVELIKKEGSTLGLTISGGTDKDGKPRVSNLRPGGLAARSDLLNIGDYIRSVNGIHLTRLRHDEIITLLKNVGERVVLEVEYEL
GRIP2-2 (Q9C0E4, residues 148-234): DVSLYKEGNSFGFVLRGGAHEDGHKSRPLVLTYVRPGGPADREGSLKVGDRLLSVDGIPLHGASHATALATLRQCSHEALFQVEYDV
GRIP2-3 (Q9C0E4, residues 248-332): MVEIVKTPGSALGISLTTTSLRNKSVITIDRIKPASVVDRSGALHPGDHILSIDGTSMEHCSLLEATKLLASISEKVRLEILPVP
GRIP2-4 (Q9C0E4, residues 456-545): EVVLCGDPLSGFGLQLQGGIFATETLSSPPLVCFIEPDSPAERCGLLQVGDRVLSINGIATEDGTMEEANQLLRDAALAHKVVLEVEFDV
GRIP2-5 (Q9C0E4, residues 557-641): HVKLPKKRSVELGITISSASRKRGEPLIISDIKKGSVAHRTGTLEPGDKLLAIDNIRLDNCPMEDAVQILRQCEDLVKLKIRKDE
GRIP2-6 (Q9C0E4, residues 656-738): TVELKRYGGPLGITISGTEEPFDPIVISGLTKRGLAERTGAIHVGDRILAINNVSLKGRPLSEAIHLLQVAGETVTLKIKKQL
GRIP2-7 (Q9C0E4, residues 941-1023): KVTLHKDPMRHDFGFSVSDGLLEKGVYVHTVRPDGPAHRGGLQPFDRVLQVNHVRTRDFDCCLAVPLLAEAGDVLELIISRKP
MAGI1-1 (Q96QZ7, residues 17-105): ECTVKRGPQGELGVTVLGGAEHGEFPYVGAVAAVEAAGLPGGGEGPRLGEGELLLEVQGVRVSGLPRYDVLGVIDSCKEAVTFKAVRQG
MAGI1-2 (Q96QZ7, residues 472-554): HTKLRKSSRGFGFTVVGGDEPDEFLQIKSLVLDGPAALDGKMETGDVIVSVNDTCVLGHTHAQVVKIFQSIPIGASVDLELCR
MAGI1-4 (Q96QZ7, residues 813-895): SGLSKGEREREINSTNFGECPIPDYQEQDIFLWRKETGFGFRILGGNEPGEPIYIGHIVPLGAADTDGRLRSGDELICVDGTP
MAGI1-6 (Q96QZ7, residues 1124-1206): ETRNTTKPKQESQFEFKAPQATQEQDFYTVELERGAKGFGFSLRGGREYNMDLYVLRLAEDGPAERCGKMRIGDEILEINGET
PARD3B-2 (Q8TEW8, residues 383-468): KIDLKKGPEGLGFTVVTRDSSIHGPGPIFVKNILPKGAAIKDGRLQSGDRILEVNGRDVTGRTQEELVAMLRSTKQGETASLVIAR
PARD3B-3 (Q8TEW8, residues 498-585): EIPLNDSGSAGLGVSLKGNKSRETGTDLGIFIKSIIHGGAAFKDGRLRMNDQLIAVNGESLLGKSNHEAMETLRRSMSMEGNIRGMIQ
UniProt Q9Y3R0, residues 673-755: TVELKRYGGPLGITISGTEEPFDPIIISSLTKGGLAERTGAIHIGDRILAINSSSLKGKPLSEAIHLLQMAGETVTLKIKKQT
UniProt Q8TEW0, residues 461-546: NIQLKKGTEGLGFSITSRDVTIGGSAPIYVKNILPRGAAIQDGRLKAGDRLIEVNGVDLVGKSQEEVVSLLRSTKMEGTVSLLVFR
UniProt A4D2P6, residues 3-84: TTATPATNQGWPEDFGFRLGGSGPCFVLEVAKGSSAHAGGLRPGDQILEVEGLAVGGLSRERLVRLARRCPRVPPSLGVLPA

Key:
PTEN_11 (human) [1] = molecular target: PTEN_11 (human) (UniProt P60484); assay: holdup assay; biotinylated PBM peptide on streptavidin resin, biotin resin as reference; tag-PDZ at 4 uM in crude E. coli lysate, 15 min, filtrate read by capillary electrophoresis; singlicate; BI converted into KD with the mean peptide concentration back-calculated from FP (34, 28, 25, 17 uM); LogKD is -log10 of KD in M, overall uncertainty ± 0.12; cells at the column's lower value are pairs without detected binding; only the target purified
PTEN_KR (human) [2] = molecular target: PTEN_KR (human) (UniProt P60484); assay: as above
PTEN_13 (human) [3] = molecular target: PTEN_13 (human) (UniProt P60484); assay: as above
PTEN_Ac (human) [4] = molecular target: PTEN_Ac (human) (UniProt P60484); assay: as above
PTEN_11 (human) [5] = molecular target: PTEN_11 (human) (UniProt P60484); assay: holdup assay; biotinylated PBM peptide saturating streptavidin resin (biotin resin as reference); tag-PDZ at 4 uM in crude E. coli lysate, 15 min, filtration, free tag-PDZ by capillary electrophoresis; singlicate; BI cut-off 0.20; BI converted into KD with the peptide concentration back-calculated from FP; only the target purified
PTEN_KR (human) [6] = molecular target: PTEN_KR (human) (UniProt P60484); assay: as above
PTEN_Ac (human) [7] = molecular target: PTEN_Ac (human) (UniProt P60484); assay: as above
PTEN_13 (human) [8] = molecular target: PTEN_13 (human) (UniProt P60484); assay: as above

GRIP2-4 (from UniProt Q9C0E4 456-545) (domain or fragment)
binding (PTEN_11 (human) [1]): no binding (tested: lower value) | binding (PTEN_KR (human) [2]): no binding (tested: lower value) | binding (PTEN_13 (human) [3]): no binding (tested: lower value)

GRIP2-6 (from UniProt Q9C0E4 656-738) (domain or fragment)
binding (PTEN_Ac (human) [4]): no binding (tested: lower value) | binding (PTEN_13 (human) [3]): no binding (tested: lower value)

GRIP2-3 (from UniProt Q9C0E4 248-332) (domain or fragment)
binding (PTEN_11 (human) [1]): no binding (tested: lower value) | binding (PTEN_KR (human) [2]): no binding (tested: lower value) | binding (PTEN_Ac (human) [4]): no binding (tested: lower value) | binding (PTEN_13 (human) [3]): no binding (tested: lower value)

GRIP2-2 (from UniProt Q9C0E4 148-234) (domain or fragment)
binding (PTEN_13 (human) [3]): no binding (tested: lower value)

MAGI1-2 (from UniProt Q96QZ7 472-554) (domain or fragment)
binding (PTEN_11 (human) [5]): no binding (tested: BI cut-off 0.20) | binding (PTEN_KR (human) [6]): no binding (tested: BI cut-off 0.20) | binding (PTEN_Ac (human) [7]): no binding (tested: BI cut-off 0.20) | binding (PTEN_13 (human) [8]): no binding (tested: BI cut-off 0.20)

GRIP2-1 (from UniProt Q9C0E4 48-131) (domain or fragment)
binding (PTEN_11 (human) [1]): no binding (tested: lower value) | binding (PTEN_KR (human) [2]): no binding (tested: lower value) | binding (PTEN_Ac (human) [4]): no binding (tested: lower value) | binding (PTEN_13 (human) [3]): no binding (tested: lower value)

PARD3B-3 (from UniProt Q8TEW8 498-585) (domain or fragment)
binding (PTEN_11 (human) [1]): no binding (tested: lower value) | binding (PTEN_KR (human) [2]): no binding (tested: lower value) | binding (PTEN_Ac (human) [4]): no binding (tested: lower value)

MAGI1-1 (from UniProt Q96QZ7 17-105) (domain or fragment)
binding (PTEN_11 (human) [1]): no binding (tested: lower value) | binding (PTEN_KR (human) [2]): no binding (tested: lower value) | binding (PTEN_Ac (human) [4]): no binding (tested: lower value) | binding (PTEN_13 (human) [3]): no binding (tested: lower value)

GRIP1-6 (from UniProt Q9Y3R0 673-755) (domain or fragment)
binding (PTEN_11 (human) [1]): no binding (tested: lower value) | binding (PTEN_KR (human) [2]): no binding (tested: lower value) | binding (PTEN_Ac (human) [4]): no binding (tested: lower value) | binding (PTEN_13 (human) [3]): no binding (tested: lower value)

MAGI1-4 (from UniProt Q96QZ7 813-895) (domain or fragment)
binding (PTEN_13 (human) [3]): no binding (tested: lower value)

MAGI1-6 (from UniProt Q96QZ7 1124-1206) (domain or fragment)
binding (PTEN_11 (human) [1]): no binding (tested: lower value) | binding (PTEN_KR (human) [2]): no binding (tested: lower value) | binding (PTEN_Ac (human) [4]): no binding (tested: lower value) | binding (PTEN_13 (human) [3]): no binding (tested: lower value)

GRIP2-7 (from UniProt Q9C0E4 941-1023) (domain or fragment)
binding (PTEN_11 (human) [1]): no binding (tested: lower value) | binding (PTEN_KR (human) [2]): no binding (tested: lower value) | binding (PTEN_Ac (human) [4]): no binding (tested: lower value) | binding (PTEN_13 (human) [3]): no binding (tested: lower value)

PARD3B-2 (from UniProt Q8TEW8 383-468) (domain or fragment)
binding (PTEN_11 (human) [1]): no binding (tested: lower value) | binding (PTEN_KR (human) [2]): no binding (tested: lower value) | binding (PTEN_Ac (human) [4]): no binding (tested: lower value) | binding (PTEN_13 (human) [3]): no binding (tested: lower value)

PARD3-2 (from UniProt Q8TEW0 461-546) (domain or fragment)
binding (PTEN_Ac (human) [4]): no binding (tested: lower value) | binding (PTEN_13 (human) [3]): no binding (tested: lower value)

GRID2IP-1 (from UniProt A4D2P6 3-84) (domain or fragment)
binding (PTEN_11 (human) [1]): no binding (tested: lower value) | binding (PTEN_KR (human) [2]): no binding (tested: lower value) | binding (PTEN_Ac (human) [4]): no binding (tested: lower value) | binding (PTEN_13 (human) [3]): no binding (tested: lower value)

GRIP2-5 (from UniProt Q9C0E4 557-641) (domain or fragment)
binding (PTEN_11 (human) [1]): no binding (tested: lower value) | binding (PTEN_KR (human) [2]): no binding (tested: lower value) | binding (PTEN_Ac (human) [4]): no binding (tested: lower value) | binding (PTEN_13 (human) [3]): no binding (tested: lower value)
